Experimental data from patent publication US20030049732A1.
Results are given in words; binding and its absence hold for the method and conditions named. In cells and extracts the contact can be indirect. Some entries that bind do so weakly or less than the wild type.

T1: Caspase-9, P55211
T1 chain: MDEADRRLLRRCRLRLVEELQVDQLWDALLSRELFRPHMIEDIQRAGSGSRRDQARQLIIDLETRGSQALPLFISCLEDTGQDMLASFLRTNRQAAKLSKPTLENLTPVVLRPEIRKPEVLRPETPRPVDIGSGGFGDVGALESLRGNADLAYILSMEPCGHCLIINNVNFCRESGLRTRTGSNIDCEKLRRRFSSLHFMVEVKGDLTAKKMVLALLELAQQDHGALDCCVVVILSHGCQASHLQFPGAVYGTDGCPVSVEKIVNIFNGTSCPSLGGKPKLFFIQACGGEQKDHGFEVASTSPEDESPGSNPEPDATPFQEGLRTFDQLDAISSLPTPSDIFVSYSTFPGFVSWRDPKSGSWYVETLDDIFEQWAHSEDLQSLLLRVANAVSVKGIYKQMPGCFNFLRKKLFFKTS

T2: Nod1 (human), Q9Y239
T2 chain: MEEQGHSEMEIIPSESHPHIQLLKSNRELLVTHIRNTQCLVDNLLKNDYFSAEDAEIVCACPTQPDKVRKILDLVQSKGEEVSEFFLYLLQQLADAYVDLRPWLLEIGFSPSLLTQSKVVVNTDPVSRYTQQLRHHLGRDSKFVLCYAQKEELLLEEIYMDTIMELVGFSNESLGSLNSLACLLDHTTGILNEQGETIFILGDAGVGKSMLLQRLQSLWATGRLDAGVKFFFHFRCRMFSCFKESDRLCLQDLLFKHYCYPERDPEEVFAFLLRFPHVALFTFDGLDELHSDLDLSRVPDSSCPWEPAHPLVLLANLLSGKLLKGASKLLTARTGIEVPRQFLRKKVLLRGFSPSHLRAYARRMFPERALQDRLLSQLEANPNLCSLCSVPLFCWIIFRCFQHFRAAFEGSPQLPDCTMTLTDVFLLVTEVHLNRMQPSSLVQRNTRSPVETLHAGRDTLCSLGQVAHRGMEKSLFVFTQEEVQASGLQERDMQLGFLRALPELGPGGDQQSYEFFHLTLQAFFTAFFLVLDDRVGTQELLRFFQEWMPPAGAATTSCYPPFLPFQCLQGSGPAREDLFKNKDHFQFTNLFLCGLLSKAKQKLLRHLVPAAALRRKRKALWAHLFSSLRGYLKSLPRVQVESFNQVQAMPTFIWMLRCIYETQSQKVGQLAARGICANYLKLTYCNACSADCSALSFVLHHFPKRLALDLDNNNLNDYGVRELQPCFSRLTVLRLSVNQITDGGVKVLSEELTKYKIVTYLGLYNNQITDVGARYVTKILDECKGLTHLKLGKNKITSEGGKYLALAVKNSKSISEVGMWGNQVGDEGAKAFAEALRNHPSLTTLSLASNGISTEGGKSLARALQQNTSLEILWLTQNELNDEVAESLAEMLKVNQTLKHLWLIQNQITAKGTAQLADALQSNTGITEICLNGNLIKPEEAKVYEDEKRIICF


What was measured:
Caspase-9 = Caspase-9 (UniProt P55211); test: co-immunoprecipitation from co-transfected 293T cells, immunoblot
Caspase-9, P55211 [1] = biological target: T1, Caspase-9, P55211; test: as above; conditions: remark: other sources report otherwise
Caspase-9, P55211 [2] = biological target: T1, Caspase-9, P55211; test: co-immunoprecipitation, tagged proteins transiently expressed in 293T cells; conditions: remark: other sources report otherwise
Nod1 (human), Q9Y239 = biological target: T2, Nod1 (human), Q9Y239; test: as above; conditions: remark: other sources report otherwise

binding (Caspase-9)	binding (Caspase-9, P55211 [1])	binding (Caspase-9, P55211 [2])	binding (Nod1 (human), Q9Y239)	Binder
binds	–	–	–	Nod1 mutant, residues 1-648 (protein) MEEQGHSEMEIIPSESHPHIQLLKSNRELLVTHIRNTQCLVDNLLKNDYFSAEDAEIVCACPTQPDKVRKILDLVQSKGEEVSEFFLYLLQQLADAYVDLRPWLLEIGFSPSLLTQSKVVVNTDPVSRYTQQLRHHLGRDSKFVLCYAQKEELLLEEIYMDTIMELVGFSNESLGSLNSLACLLDHTTGILNEQGETIFILGDAGVGKSMLLQRLQSLWATGRLDAGVKFFFHFRCRMFSCFKESDRLCLQDLLFKHYCYPERDPEEVFAFLLRFPHVALFTFDGLDELHSDLDLSRVPDSSCPWEPAHPLVLLANLLSGKLLKGASKLLTARTGIEVPRQFLRKKVLLRGFSPSHLRAYARRMFPERALQDRLLSQLEANPNLCSLCSVPLFCWIIFRCFQHFRAAFEGSPQLPDCTMTLTDVFLLVTEVHLNRMQPSSLVQRNTRSPVETLHAGRDTLCSLGQVAHRGMEKSLFVFTQEEVQASGLQERDMQLGFLRALPELGPGGDQQSYEFFHLTLQAFFTAFFLVLDDRVGTQELLRFFQEWMPPAGAATTSCYPPFLPFQCLQGSGPAREDLFKNKDHFQFTNLFLCGLLSKAKQKLLRHLVPAAALRRKRKALWAHLFSSLRGYLKSLPRVQVESFNQVQA
–	binds	binds	binds	Nod1, Q9Y239 1-953 (protein) MEEQGHSEMEIIPSESHPHIQLLKSNRELLVTHIRNTQCLVDNLLKNDYFSAEDAEIVCACPTQPDKVRKILDLVQSKGEEVSEFFLYLLQQLADAYVDLRPWLLEIGFSPSLLTQSKVVVNTDPVSRYTQQLRHHLGRDSKFVLCYAQKEELLLEEIYMDTIMELVGFSNESLGSLNSLACLLDHTTGILNEQGETIFILGDAGVGKSMLLQRLQSLWATGRLDAGVKFFFHFRCRMFSCFKESDRLCLQDLLFKHYCYPERDPEEVFAFLLRFPHVALFTFDGLDELHSDLDLSRVPDSSCPWEPAHPLVLLANLLSGKLLKGASKLLTARTGIEVPRQFLRKKVLLRGFSPSHLRAYARRMFPERALQDRLLSQLEANPNLCSLCSVPLFCWIIFRCFQHFRAAFEGSPQLPDCTMTLTDVFLLVTEVHLNRMQPSSLVQRNTRSPVETLHAGRDTLCSLGQVAHRGMEKSLFVFTQEEVQASGLQERDMQLGFLRALPELGPGGDQQSYEFFHLTLQAFFTAFFLVLDDRVGTQELLRFFQEWMPPAGAATTSCYPPFLPFQCLQGSGPAREDLFKNKDHFQFTNLFLCGLLSKAKQKLLRHLVPAAALRRKRKALWAHLFSSLRGYLKSLPRVQVESFNQVQAMPTFIWMLRCIYETQSQKVGQLAARGICANYLKLTYCNACSADCSALSFVLHHFPKRLALDLDNNNLNDYGVRELQPCFSRLTVLRLSVNQITDGGVKVLSEELTKYKIVTYLGLYNNQITDVGARYVTKILDECKGLTHLKLGKNKITSEGGKYLALAVKNSKSISEVGMWGNQVGDEGAKAFAEALRNHPSLTTLSLASNGISTEGGKSLARALQQNTSLEILWLTQNELNDEVAESLAEMLKVNQTLKHLWLIQNQITAKGTAQLADALQSNTGITEICLNGNLIKPEEAKVYEDEKRIICF
